Construct, isoform or probe ends are uncertain for at least one entry. At least one verdict was read from the data and is not stated in words by the source.
Target: YFP-STAT3 127-688 (UniProt P40763)
Assay: PEMSA (EMSA with YFP-protein fluorescence)
Conditions: 6 uM DNA, 0.8 uM protein, 24 hr, 4 C, PEMSA: buffer with 0.2 mg/ml BSA and 8% glycerol, 5% native gel, recombinant protein, residues 127-688, protein details: YFP fusion (N-terminal by name)

Chains of the proteins cited; added tags and fusions are not shown. Residues count along the entry.
UniProt P40763, 127-688: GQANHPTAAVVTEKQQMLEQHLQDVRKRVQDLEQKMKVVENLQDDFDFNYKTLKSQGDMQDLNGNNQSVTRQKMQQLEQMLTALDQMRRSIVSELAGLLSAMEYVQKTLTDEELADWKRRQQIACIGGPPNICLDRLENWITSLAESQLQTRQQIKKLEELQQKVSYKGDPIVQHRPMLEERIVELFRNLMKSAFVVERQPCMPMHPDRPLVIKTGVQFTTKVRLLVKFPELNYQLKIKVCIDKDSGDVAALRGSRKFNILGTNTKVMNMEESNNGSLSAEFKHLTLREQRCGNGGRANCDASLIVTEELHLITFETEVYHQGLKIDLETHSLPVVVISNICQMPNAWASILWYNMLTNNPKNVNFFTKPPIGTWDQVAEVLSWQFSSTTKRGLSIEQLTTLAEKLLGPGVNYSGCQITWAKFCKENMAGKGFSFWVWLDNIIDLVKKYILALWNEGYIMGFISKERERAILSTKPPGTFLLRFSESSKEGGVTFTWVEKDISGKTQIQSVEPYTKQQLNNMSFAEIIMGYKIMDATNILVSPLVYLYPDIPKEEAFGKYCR

ATTTCCCGTAAA (double strand) [unlabelled consensus DNA 12-mer]
binding result: binds

Source: paper PMC6135694
